Experimental data published in PubChem BioAssay AID2417 (National Center for Advancing Translational Sciences (NCATS), 2010).
The whole screen tested about 140,000 compounds, of which about 4,300 (3.1%) were called active. Inconclusive results, whose numbers are uncertain, are shown with a selection of clear calls.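 How the source made its calls: active means readout at or below -70, meaning at least 70% loss of cells showing the perinucleolar compartment, a nuclear body marking cancer cells; inconclusive means readout between -30 and a set limit; inactive means the rest.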

assay: High Content Assay for Compounds that inhibit the Assembly of the Perinucleolar Compartment; settings: PC3M PTB-GFP, PNC prevalence imaging, 16 h; at 10 µM; stronger effect = lower value;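 further: plate controls were DMSO wells for no effect and camptothecin positive control wells for full effect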
Method in brief: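 PC3M cells stably expressing PTB-GFP, 750–1000 cells/well, treated 16 h at 37 °C with compound (23 nl of library stock), in duplicate. After paraformaldehyde fixation and Hoechst stain, imaged at 20x; PNC prevalence scored by image analysis.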

Q: Which activity change (PNC), negative = inhibition does the source give for `O=P(C(c1c[nH]c2ccccc12)N1CCOCC1)(N1CCOCC1)N1CCOCC1` (stereo not given) here?
A: The activity change (PNC), negative = inhibition was inconclusive: -30.1%.

Q: Which activity change (PNC), negative = inhibition does the source give for `Cn1c(O)c(C=NC2CC3CCC2(C)C3(C)C)c(=O)[nH]c1=O` (stereo not given) here?
A: Its activity change (PNC), negative = inhibition is inactive: -0.551%.

Q: With `OC(Cn1c2ccccc2c2ccccc21)C[n+]1ccccc1` (stereo not given) as the compound, how does the activity change (PNC), negative = inhibition read?
A: The activity change (PNC), negative = inhibition was inconclusive: -31.8%.

Q: For `N#CC1=C(N)Oc2c(c(=O)oc3ccccc23)C1c1ccccc1OC(=O)c1cccs1` (stereo not given), which activity change (PNC), negative = inhibition is on record?
A: Its activity change (PNC), negative = inhibition is inconclusive: -55.4%.

Q: With `O=C(c1cc(C(=O)NCc2ccccc2)c(=O)n(Cc2ccccc2)c1)c1cc(Cl)ccc1O` as the compound, how does the activity change (PNC), negative = inhibition read?
A: Its activity change (PNC), negative = inhibition is inconclusive: -49.3%.

Q: With `O=C(c1c[nH]cc1-c1ccccc1)c1cccc2ccccc12` as the compound, how does the activity change (PNC), negative = inhibition read?
A: Its activity change (PNC), negative = inhibition is inconclusive: -48.1%.

Q: With `COc1ccc(/C=N/N=C(/N)N[N+](=O)[O-])c(OC)c1` as the compound, how does the activity change (PNC), negative = inhibition read?
A: The activity change (PNC), negative = inhibition was inconclusive: -42.2%.

Q: Which activity change (PNC), negative = inhibition does the source give for `CCC(=Nc1ccccc1NC(C)=O)c1c(O)n(C)c(=O)n(C)c1=O` here?
A: The activity change (PNC), negative = inhibition was inconclusive: -37.9%.

Q: For `CCOc1ccc(N2C(=O)NC(=O)/C(=C\c3cc(OC)c(OC)cc3[N+](=O)[O-])C2=O)cc1`, which activity change (PNC), negative = inhibition is on record?
A: Its activity change (PNC), negative = inhibition is inactive: -3.48%.

Q: For `O=C(c1cc([N+](=O)[O-])ccc1N1CCNCC1)N1CCOCC1`, which activity change (PNC), negative = inhibition is on record?
A: Its activity change (PNC), negative = inhibition is inactive: 5.21%.

Q: Which activity change (PNC), negative = inhibition does the source give for `CCOC(=O)N(CC)c1ccc(C(O)(C(=O)OC)C(F)(F)F)cc1` (stereo not given) here?
A: The activity change (PNC), negative = inhibition was inconclusive: -67.9%.

Q: For `COc1ccc(-n2c(O)c(C=Nc3c(C)n(C)n(-c4ccccc4)c3=O)c(=O)[nH]c2=O)cc1`, which activity change (PNC), negative = inhibition is on record?
A: Its activity change (PNC), negative = inhibition is inconclusive: -43.1%.

Q: With `CC(=Nc1ccc2c(c1)CCC2)c1c(O)n(C)c(=O)n(C)c1=O` as the compound, how does the activity change (PNC), negative = inhibition read?
A: Its activity change (PNC), negative = inhibition is inconclusive: -54.3%.

Q: Which activity change (PNC), negative = inhibition does the source give for `CCCCCn1c(=O)c(C(=O)NCc2ccccn2)c(O)c2ccccc21` here?
A: The activity change (PNC), negative = inhibition was active: -112%.

Q: For `CN(C)C(=O)Oc1ccc(Cl)c2ccccc12`, which activity change (PNC), negative = inhibition is on record?
A: The activity change (PNC), negative = inhibition was inconclusive: -32.9%.

Q: For `COc1cccc(OC)c1C1=NCC(=O)Nc2c1oc1ccc(Br)cc21`, which activity change (PNC), negative = inhibition is on record?
A: The activity change (PNC), negative = inhibition was active: -119%.

Q: With `O=C1NC(=O)[C@]2(Cc3ccccc3N3CCN(c4ccccc4)CC32)C(=O)N1Cc1ccccc1` (stereo not given in full) as the compound, how does the activity change (PNC), negative = inhibition read?
A: Its activity change (PNC), negative = inhibition is inactive: -16.9%.

Q: Which activity change (PNC), negative = inhibition does the source give for `CC(=O)OC1(c2ccc(C)cc2)CN2CCC1c1ccccc12` (stereo not given) here?
A: The activity change (PNC), negative = inhibition was inconclusive: -32.4%.

Q: With `COc1ccc(C(=O)C2(C)N(O)C(C)C(c3cccs3)=[N+]2[O-])cc1` (stereo not given) as the compound, how does the activity change (PNC), negative = inhibition read?
A: Its activity change (PNC), negative = inhibition is inconclusive: -54.6%.

Q: Which activity change (PNC), negative = inhibition does the source give for `N=c1c2c(n(Cc3ccc(Cl)cc3Cl)c3c1CCC3)CCCC2` here?
A: Its activity change (PNC), negative = inhibition is inactive: 26.7%.

Q: Which activity change (PNC), negative = inhibition does the source give for `O=C(O)c1cc2ccccc2oc1=O` here?
A: The activity change (PNC), negative = inhibition was inactive: 26%.

Q: With `O=C(Nc1ccc2ccccc2c1)c1nn(C23CC4CC(CC(C4)C2)C3)cc1Br` as the compound, how does the activity change (PNC), negative = inhibition read?
A: The activity change (PNC), negative = inhibition was inconclusive: -57%.

Q: With `Cc1ccccc1N1C(=O)NC(=O)/C(=C\c2cc(Br)c(N3CCOCC3)o2)C1=O` as the compound, how does the activity change (PNC), negative = inhibition read?
A: The activity change (PNC), negative = inhibition was inactive: -19.5%.

Q: Which activity change (PNC), negative = inhibition does the source give for `CC(C)NS(=O)(=O)c1ccc(OCC(=O)N2CCN(C)CC2)cc1` here?
A: The activity change (PNC), negative = inhibition was inactive: -4.8%.

Q: For `CCc1ccc(N2C(=O)NC(=O)/C(=C/c3cccn3CCOc3ccc(C(C)CC)cc3)C2=O)cc1` (stereo not given), which activity change (PNC), negative = inhibition is on record?
A: The activity change (PNC), negative = inhibition was inactive: -16.9%.

Q: Which activity change (PNC), negative = inhibition does the source give for `O=c1c2ccccc2nc(-c2ccco2)n1-c1cccnc1` here?
A: Its activity change (PNC), negative = inhibition is inconclusive: -54.3%.

Q: With `COc1cc(CN2C(=O)NC(=O)C3(Cc4cc(C)ccc4N(C)C3)C2=O)cc(OC)c1` (stereo not given) as the compound, how does the activity change (PNC), negative = inhibition read?
A: The activity change (PNC), negative = inhibition was inconclusive: -36.3%.

Q: For `CN1C(=O)/C(=C\c2ccc(N3CCCCC3)o2)C(=O)NC1=S`, which activity change (PNC), negative = inhibition is on record?
A: Its activity change (PNC), negative = inhibition is inconclusive: -40.8%.

Q: With `Cc1ccc(S(=O)(=O)NC(CC(=O)N2CCC3(CC2)OCCO3)c2ccco2)cc1` (stereo not given) as the compound, how does the activity change (PNC), negative = inhibition read?
A: The activity change (PNC), negative = inhibition was inactive: -7.8%.

Q: With `O=C(Nc1cccc(OC(=O)N2CCOCC2)c1)N1CCOCC1` as the compound, how does the activity change (PNC), negative = inhibition read?
A: Its activity change (PNC), negative = inhibition is inconclusive: -32.7%.

Q: For `O=C1NC(=O)C2(Cc3ccccc3N3CCCC32)C(=O)N1c1ccccc1` (stereo not given), which activity change (PNC), negative = inhibition is on record?
A: The activity change (PNC), negative = inhibition was inconclusive: -63.4%.

Q: With `COP(=O)(OC)C1(O)C(=O)Nc2ccc(Br)cc21` (stereo not given) as the compound, how does the activity change (PNC), negative = inhibition read?
A: Its activity change (PNC), negative = inhibition is inconclusive: -41.2%.

Q: With `CC(C)=CCSc1nnc([C@@H](N)Cc2c[nH]c3ccccc23)o1` as the compound, how does the activity change (PNC), negative = inhibition read?
A: The activity change (PNC), negative = inhibition was inactive: 12.9%.

Q: Which activity change (PNC), negative = inhibition does the source give for `COC(=O)C(O)(c1c(C)[nH]c2ccccc12)C(F)(F)F` (stereo not given) here?
A: The activity change (PNC), negative = inhibition was inconclusive: -35.5%.

Q: With `COc1ccc(-c2nc(CSCC(=O)N3CCC4(CC3)OCCO4)c(C)o2)cc1OC` as the compound, how does the activity change (PNC), negative = inhibition read?
A: The activity change (PNC), negative = inhibition was inactive: 4.07%.

Q: With `CC(NCc1cccc(Cl)c1Cl)C(O)c1ccccc1` (stereo not given) as the compound, how does the activity change (PNC), negative = inhibition read?
A: The activity change (PNC), negative = inhibition was inconclusive: -34.6%.

Q: For `Cc1ccc2c(c1)=C/C(=C\c1c(O)[nH]c(=O)[nH]c1=O)C(=O)N=2`, which activity change (PNC), negative = inhibition is on record?
A: The activity change (PNC), negative = inhibition was inconclusive: -52%.

Q: Which activity change (PNC), negative = inhibition does the source give for `CCOC(=O)C(NC(=O)CCl)(Nc1ccc(C(O)(C(=O)OCC)C(F)(F)F)cc1)C(F)(F)F` (stereo not given) here?
A: The activity change (PNC), negative = inhibition was inconclusive: -66.5%.

Q: With `CC(=NCCCN1CCOCC1)c1c(O)[nH]c(=O)[nH]c1=O` as the compound, how does the activity change (PNC), negative = inhibition read?
A: The activity change (PNC), negative = inhibition was inconclusive: -52.3%.

Q: For `Cc1nc2ncnn2c(C)c1CCC(=O)N1CCC2(CC1)OCCO2`, which activity change (PNC), negative = inhibition is on record?
A: The activity change (PNC), negative = inhibition was inconclusive: -35.3%.

Q: Which activity change (PNC), negative = inhibition does the source give for `CCCCN1C(=O)NC(=O)C2(Cc3cc(C)ccc3N(C)C2)C1=O` (stereo not given) here?
A: Its activity change (PNC), negative = inhibition is inconclusive: -43.6%.

Q: With `O=c1c2ccccc2nc(-c2ccc(Cl)cc2Cl)n1-c1ccncc1` as the compound, how does the activity change (PNC), negative = inhibition read?
A: Its activity change (PNC), negative = inhibition is inconclusive: -65.1%.

Q: For `COc1ccc(CCNCc2ccc(F)cc2)cc1OC`, which activity change (PNC), negative = inhibition is on record?
A: The activity change (PNC), negative = inhibition was active: -106%.

Q: Which activity change (PNC), negative = inhibition does the source give for `Cc1cccc(OP(=O)(NCc2ccccc2)Oc2cccc(C)c2)c1` here?
A: Its activity change (PNC), negative = inhibition is inconclusive: -33.2%.

Q: Which activity change (PNC), negative = inhibition does the source give for `COc1ccc(OCC(=O)N2CCN(Cc3c[nH]c4ccccc34)CC2)cc1` here?
A: The activity change (PNC), negative = inhibition was inactive: 6.06%.

Q: With `CCCC[N+]12CCC(CC1)C(=C(c1ccccc1)c1ccccc1)C2` as the compound, how does the activity change (PNC), negative = inhibition read?
A: The activity change (PNC), negative = inhibition was inactive: -17%.

Q: Which activity change (PNC), negative = inhibition does the source give for `COC(=O)C(C)Oc1cc(C)cc2oc(=O)c3c(c12)CCCC3` (stereo not given) here?
A: The activity change (PNC), negative = inhibition was inactive: -21.6%.

Q: For `Cc1ccc(C2=NCC(=O)N(CC(=O)N3CCCCC3)c3sc(C)c(C)c32)cc1`, which activity change (PNC), negative = inhibition is on record?
A: The activity change (PNC), negative = inhibition was inconclusive: -60.6%.

Q: Which activity change (PNC), negative = inhibition does the source give for `COc1ccc(CCNC(C)CCc2ccc(OC)cc2)cc1` (stereo not given) here?
A: The activity change (PNC), negative = inhibition was inconclusive: -35.3%.

Q: With `COc1ccc(CCn2c(O)c(/C=N/NC(=O)c3ccncc3)c(=O)[nH]c2=O)cc1OC` as the compound, how does the activity change (PNC), negative = inhibition read?
A: Its activity change (PNC), negative = inhibition is inconclusive: -40.6%.

Q: With `CCOC(=O)c1cc(C(O)(C(=O)OC)C(F)(F)F)c(/N=C/N(C)C)o1` (stereo not given) as the compound, how does the activity change (PNC), negative = inhibition read?
A: Its activity change (PNC), negative = inhibition is inconclusive: -42.7%.

Q: For `CC(=O)c1ccc2c(c1)C1C(Cl)C(Sc3ccccc3[N+](=O)[O-])CC1C(c1ccccc1[N+](=O)[O-])N2` (stereo not given), which activity change (PNC), negative = inhibition is on record?
A: The activity change (PNC), negative = inhibition was inconclusive: -40%.

Q: Which activity change (PNC), negative = inhibition does the source give for `CCCCN1C(=O)NC(=O)/C(=C/c2cnc(SC)nc2)C1=O` here?
A: The activity change (PNC), negative = inhibition was inactive: 5.11%.

Q: Which activity change (PNC), negative = inhibition does the source give for `O=C1NC(=O)N(CCC2=CCCCC2)C(=O)/C1=C\c1cccs1` here?
A: The activity change (PNC), negative = inhibition was active: -85.6%.

Q: For `CC(=O)C1C2c3ccccc3OC1(C)N=c1s/c(=C/c3cnn(C)c3)c(=O)n12` (stereo not given), which activity change (PNC), negative = inhibition is on record?
A: Its activity change (PNC), negative = inhibition is inconclusive: -62.4%.
